# Primary screen of a compound library

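Whole-parasite assay of Trypanosoma brucei over 72 hours; the read-out is not stated. Tested at 30 µM. The record gives no direction; compounds that gave an IC50 in retests scored well above the rest, so higher reads as stronger inhibition. Values scatter widely below zero; nearly all retest evidence comes from the higher of the two concentrations used. About 64,000 compounds were tested under these conditions; 1.5% (about 940) showed 50% or more at least once.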

Each number is a percent effect as filed.
The controls that fix the scale are not given in the record; negative values are as filed.
This is an unselected part of the compounds tested.

O=C(CCn1ccccc1=O)Nc1ccc(I)cc1 read -12.35%. FC(F)(F)C1CN(Cc2cnc3c(-c4ccccc4)cnn3c2)CCO1 (configuration not stated) gave -145.4%. Cc1ccccc1CC(=O)NS(=O)(=O)c1cccc2cnccc12 gave -17.88%. Result for CCOc1ccccc1NC(=O)Nc1cc(N2CCCC2)ncn1 was 7.848%. O=C(NCC1CCOCC1)c1cc(-c2cccnc2)c2cnccc2n1 gave -19.78%.

With CCn1nc(C)c2c1cnn2CC(=O)Nc1ccc(OC)cc1C the screen gave -21.86%. With CC(C)c1nnc(NC(=O)c2cccc(OCC(F)(F)F)n2)[nH]1 the screen gave -13.26%. For COCCO[C@H]1COCCN(C2CCN(C)CC2)C1 the result was -11.05%. CCC(C)(C)NC(=O)CN1C=Nc2ccccc2S1(=O)=O gave 19.59%. COc1ccccc1CNC(=O)COc1c(C)n(C)ccc1=O gave -35.12%.

For CCc1nc2c(c(NC3CC3)n1)CCN(C(=O)Cc1nonc1C)CC2 the result was -52.01%. With CCc1sc(C(=O)Nc2cnn(CC(=O)NC3CC3)c2)cc1C the screen gave -2.319%. For CCNC(=O)N1CCC(Cc2cccc(C(N)=O)c2)C1 (configuration not stated) the result was -37.87%. [H][C@]12CCN(C(=O)Cc3ccccc3)CC[C@@]1([H])S(=O)(=O)NC2 read -37.1%. COc1ccc(Oc2nccnc2C2CCN(C(C)=O)CC2)cc1 read 2.843%.

With CC1=C[C@@H](CNS(C)(=O)=O)[C@H](C(C)C)C[C@H]1CC(=O)NCCN(C)C the screen gave -8.859%. Nc1nnnn1NCc1cccc2ccccc12 read -6.974%. Result for Cc1cc(C)cc(NC(=O)Cc2c(C)nc3c(c2C)c(=O)[nH]n3C)c1 was -1.981%. O=C(Cc1ccc2c(c1)OCO2)N1CCN(c2ccccc2Cl)C(=O)C1 gave -2.238%. For Cc1nc(CN(C)Cc2cc3c(cc2OC(F)F)OCO3)cs1 the result was -37.35%.

For COC[C@@H]1CCC[C@@]12CN(C(=O)N1CCCC1)CCO2 the result was 10.83%. For CC(C)NC(=O)Cc1cnc(-n2cccc2)s1 the result was -33.41%. Cc1ccc(C(F)(F)F)cc1C(=O)N[C@H]1CN(CCO)C[C@@H]1C1CC1 gave 7.426%. For CCn1cc(CN2CCCN(C(=O)CCc3cccs3)CC2)cn1 the result was -3.325%. Result for Cc1ccc(N2CCCN(C(=O)CC3C=CCC3)CC2)nn1 (configuration not stated) was 9.479%.

Result for CCS(=O)(=O)NCc1nc(C)cc(N2CCOCC2)n1 was -12.8%. Result for CC(C)Cc1cc(C(=O)NCCn2nc3ccccn3c2=O)[nH]n1 was 10.23%. c1ccc(C[C@H]2[C@H](N3CCOCC3)CCN2Cc2cccnc2)cc1 gave -38.51%. Result for CCc1c(C)[nH]c(C2(N)CCCCC2)nc1=O.Cl was -5.001%.

Source: ChEMBL document CHEMBL3988442, “University of Dundee, Small-Polar-MMV Screening Library” (2021).